Laboratory results reported in paper doi:10.1101/2024.05.03.592456.
These are yes or no findings as the source states them, for the method shown. Binding seen in cells or lysates may run through a third protein. Where a sequence is shown, tags or fusion partners need not be part of it.

Protein sequences, listed by entry. Tags and fused reporters are not part of them.
UniProt P21926: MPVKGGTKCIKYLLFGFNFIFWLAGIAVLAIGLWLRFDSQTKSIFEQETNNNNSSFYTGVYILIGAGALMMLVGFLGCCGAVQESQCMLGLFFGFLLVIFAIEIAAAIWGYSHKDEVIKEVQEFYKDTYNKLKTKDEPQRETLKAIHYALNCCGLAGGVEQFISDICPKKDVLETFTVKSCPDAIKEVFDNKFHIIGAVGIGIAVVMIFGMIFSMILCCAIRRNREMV

Biological target: T1, ILDR2-myc (UniProt Q71H61)
T1 sequence: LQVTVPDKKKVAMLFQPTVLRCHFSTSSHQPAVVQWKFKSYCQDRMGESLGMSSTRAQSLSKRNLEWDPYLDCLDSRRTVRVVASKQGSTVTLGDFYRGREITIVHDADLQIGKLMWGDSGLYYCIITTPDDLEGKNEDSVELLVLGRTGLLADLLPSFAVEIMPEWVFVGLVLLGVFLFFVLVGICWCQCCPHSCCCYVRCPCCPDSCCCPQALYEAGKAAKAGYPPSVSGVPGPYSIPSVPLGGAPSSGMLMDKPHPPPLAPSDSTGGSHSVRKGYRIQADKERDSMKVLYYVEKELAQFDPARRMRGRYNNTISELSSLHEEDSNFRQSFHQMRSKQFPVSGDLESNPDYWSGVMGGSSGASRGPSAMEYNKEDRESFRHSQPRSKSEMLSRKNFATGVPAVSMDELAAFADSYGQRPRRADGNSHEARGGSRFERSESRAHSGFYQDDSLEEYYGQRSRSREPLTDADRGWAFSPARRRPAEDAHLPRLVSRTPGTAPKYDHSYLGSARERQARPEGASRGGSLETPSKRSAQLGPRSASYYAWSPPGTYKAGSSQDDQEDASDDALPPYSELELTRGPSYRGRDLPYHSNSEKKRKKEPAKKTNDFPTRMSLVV
Experiment: co-IP

CD9 (from UniProt P21926 1-228)
binding: no binding
